The campaign covered roughly 53,000 sequences. About 3,700 (7%) were called active.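 Rule for the calls: active = gene knockdowns whose robust z-score for IL-1 alpha signal is at least 2 or at most -2, so actives lie on both sides; inactive = the rest.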 This is one part of the list.

This test in a line: Components of the Cytosolic LPS Sensing Pathway: Gene Identification via Genome-wide siRNA Screen.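 Note: robust z of the log signal after scaling to non-targeting control siRNA wells of the plate.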 To be noted: RAW264.7 macrophages, IL-1a HTRF, actives lie on both sides, screened at 100 nM (by protocol), cells primed 5 h with Pam3CSK4 first. A digest of the protocol: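 RAW264.7 mouse macrophages reverse-transfected with single siRNAs (100 nM final) for 48h, primed with Pam3CSK4 for 5 hours, then transfected with LipidA for 24 hour. Supernatant IL-1a read by HTRF; values normalized to negative-control median, log-transformed robust z-scores.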
In general terms: TR-FRET usually uses a lanthanide donor and a delayed reading to cut background.
As to GGAAGAUUUAGGUUCUACUTT against Def8, the z-score is inactive: 1.43.
CGACCUACCUUUAAGCUUGTT against Gnptab: the z-score is inactive: 1.43.
Then CCUAAGUACUGUAAGAAUATT against Mycn, with inactive: 0.506; and CCACUAUUCUGUCAAAGGGTT against Pmm2, with inactive: -0.537.
The value for GCUCGAGGACUAUAUGAAUTT against Xrcc1 was active: 2.03.
On to GGACAAAGCAAUCCACAUCTT against Wdr55, for which the z-score was inactive: -0.564.
In the case of GCAGAUGGGCAUCUAUGCUTT against Trpv1, the z-score was inactive: -0.427.
The value for GUUAUAGCGGCGAAGGUGUTT against Maml3 was inactive: 1.02.
The value for GGCAUGACAUCAUUGCAUGTT against Mapre2 was inactive: 0.381.
Consider GGAAGCUCUACCAGGUUAATT against Capg, for which the z-score is inactive: 0.479.
Then GCCAUGUUAAAUUCUCUACTT against Poln, with inactive: 0.575; and GGAACUGUAGAUUGUGUACTT against Pdcd4, with inactive: 1.52.
For the sequence GGUUGCUACAAGAUUACUATT against Rps27l, the z-score was inactive: 0.809.
Then GGUGAAGCAUGAGUUUAAATT against Arl5b, with inactive: 0.324; and GCAAGUAUUUUACAGGUGCTT against Lman1, with inactive: -0.516.
GGUCUUGUGCAUAAAACAGTT against Ece2: the z-score is inactive: -1.06.
The value for GGAGCAUGUAGAGGUUUACTT against Txnrd2 was active: 2.44; that for GGAGUGGGAGAAGAUGGAATT against Mbd4 was active: 2.17; that for GGUAUUAUUUCUGAAUGCCTT against Mtrf1l was inactive: -0.0601.
The value for GGCCACAAGUUUUCAGACGTT against Actl7b was inactive: 1.15; that for GGGACUACCUGAAUAAUGUTT against Tspan12 was inactive: -0.351.
GGCCCUUACUUCCACAUCATT against Fam104a: the z-score was inactive: -0.711.
The value for CCAAACCGAUAUAUAAAGUTT against Ddx51 was inactive: -0.9; that for GGCCCAUAUCCACAUGAUGTT against Uxt was inactive: -1.9; that for CCCUUAUCCCAAUAAUAAGTT against Spag5 was inactive: -1.78.
Turning to GGAGCUUCCACAACUCAUATT against Esd, the z-score is inactive: -0.456.
Regarding GGACAUUGCUGCCUAUAUCTT against Dynll2, the z-score is inactive: 0.452.
For the sequence GGAAGAUGGGAACAGCACUTT against Rsad2, the z-score was inactive: 0.209.
The value for CCACUUCUUUCCAUGAACUTT against Slc6a4 was inactive: 0.7; that for GGCAAGUUCCGAGAAGGGATT against Irf4 was inactive: -0.483.
Then GGAUGGUCUGCUAUUACAUTT against Phf7, with inactive: 0.832; and GGAAGUUGUGUGACAGAAATT against Lcn8, with inactive: 0.41; and GCUUCUAAGCUUUAGAGGGTT against Rassf10, with inactive: -1.
Then GGGAGAAGAGAUUCUGAUATT against Sh2d1a, with inactive: -0.117.
As for GGUUCUCAUUGUUGUUGUATT against Prkcb, the z-score is inactive: -0.339.
In the case of GGGACUAUGGUGUCAGAAATT against Clec4n, the z-score was inactive: 0.533.
In the case of “GGAUGGUGGCAUUUUACAGTT against 2810407A14Rik”, the z-score is inactive: 0.514.
Then GCUAGAGGAGUUUCUAAACTT against Clu, with inactive: 0.0975.
The value for GGGUAUAACUGUCAAACAGTT against Tbc1d24 was inactive: -1.83; that for GGCCAUUGUUACUGGAAAATT against Elmo2 was inactive: -0.353; that for GGCAGGCAACCAAUCAAAUTT against Npepps was inactive: 1.29.
Then GGAAAAAUGUAAUAAGCCATT against Dram2, with inactive: 0.86.
On to GGCUGAAGUUCAAGGAUUGTT against Vmn1r49, for which the z-score was inactive: -1.7.
As for GGCAGAAACUAGCAGAAGATT against Gdf2, the z-score was inactive: 0.286.
For CCUCAUGCAGUUAAAUAUGTT against Kera, the z-score was inactive: -1.56.
For GGACUUAGCUUUGUUUCCUTT against Nip7, the z-score was inactive: -0.493.
The value for GCAGAGAAUCGGACUUUCCTT against Gpatch2l was inactive: -1.27; that for GGAUAACCUAUCGAAUCUCTT against Dsg4 was inactive: 1.26.
Consider GGUAGAGGAGAUCUUCAAGTT against Entpd5, for which the z-score is inactive: -1.24.
Then CCGUGAAGGGUGAACUUAUTT against Ldhal6b, with inactive: 0.537; and CGUUGUCUAAAUUGUGAAATT against Kpna3, with inactive: 1.25.
The value for GGGUCAGAUUUUCAAUGUCTT against Bmpr1b was inactive: 0.8.
Then CCAAAGAUCGGGAAAAGGATT against Defb28, with inactive: -1.52; and CCCUGCUAUCAGCAUCACATT against Hacd3, with active: -3.09; and GGUGCAUUCAUUAUCUUAATT against Ikbkb, with inactive: 1.57.
As for GGUAUUUCAUGAACAUCACTT against Grin2d, the z-score was inactive: 0.416.
The value for GCUACUUGGAGUGGAUCUGTT against Klk15 was inactive: 1.15; that for GGAAAUGGAAUCAAGACAGTT against Eif5 was inactive: 0.913; that for CCAUGACCUCACUGAAGUCTT against Slc26a6 was inactive: 0.751.
Then GGUUUUAUGAUAAGGCUCATT against Olfr895, with inactive: -0.583.
The value for GAUAUCACAGAUCUGUUGUTT against Krtap13 was inactive: -0.431; that for GCACGGCGAAAAAAUCUUCTT against Katnal2 was inactive: -0.167; that for “CGCAUCUGUUUCUUUUCCCTT against 1700029P11Rik” was active: -2.22.
Take GGUAAUGGGAGCUUUUGGGTT against Vmn1r228: the z-score is inactive: -0.168.
The value for GGUUUUGACCAUAAAAGAATT against Zfp830 was inactive: -1.73.
Consider GGAACUAGUCUGGUGAACUTT against Apoa2, for which the z-score is inactive: -1.35.
GGCUUCUUCCUAGAAAUGCTT against Them7: the z-score is inactive: -0.689.
The value for GGAUGUCAGGACAAAACCATT against Olfr1335 was active: -2.51; that for GGCGUAUUCUGGUAUCCAGTT against Celf1 was active: 2.08; that for GGUGACUUUCUGUAAUCAUTT against Id3 was inactive: 1.65.
In the case of GCGAACCAUUCCACUCUUUTT against Hpgd, the z-score was inactive: 0.212.
Turning to UAUUGUUCACUGCACUGUATT against Lefty1, the z-score is inactive: 0.608.
As to GGAAUUCAGUGAAUGUCAUTT against Gapvd1, the z-score is active: -2.28.
The value for GGUGUUCUUAAUGAGAUUCTT against Gdf5 was inactive: 0.707; that for GGUGGAACAACUGUUUCAATT against Dyrk3 was inactive: 0.541.
In the case of AUGAAGUCGUUGUUCUCAUTT against Olfr918, the z-score was inactive: -0.235.
Then GGAGCUAGAGUUUUCACUATT against Chtop, with inactive: 1.73.
The value for GCCUUAGAGCACAUUCAGATT against Rnf6 was inactive: -0.608; that for GGCAUCUGACGAUAAUGAUTT against Lman2l was inactive: -0.337; that for GGAGGUACCUAUUGAGAUCTT against Acot8 was inactive: -1.48.
As for GGAUCUCUCCUUGAGGAGATT against Glp2r, the z-score is inactive: -0.268.
Then “GGGACUUCCUUAUUGGAACTT against A830019P07Rik”, with inactive: 1.23; and GGUUUGAUCCUCCACAUUCTT against Nucks1, with inactive: -0.381; and GGUGAGCACCUUCAAGUCUTT against Gpc2, with inactive: 0.749.
Regarding CGUAUUAUGUCUGGUUUGUTT against Slc35a1, the z-score is inactive: -0.0557.
The value for GGAAACCUAUGUCUCAAGATT against Mrps36 was inactive: -0.332.
The value for GGGUGUUUUCAUUAACACATT against Setdb1 was inactive: 1.14.
The value for GAAUGAGGAUCUACGAAAATT against Crygb was inactive: 1.39; that for GGGUACCUCAUAAAGCAUATT against Dock2 was inactive: 0.0787.
Regarding GGCCAUUAACUUAAGUUUGTT against Dynlt3, the z-score was inactive: 0.76.
For the sequence GGUGUCCACAUUAAAUUACTT against Foxb1, the z-score is active: 2.21.
The value for GGCAGUUCCUGGAUUACCUTT against Il5 was inactive: -1.37; that for GGCUGUGAAGAACUGGCAGTT against Rnaseh2a was inactive: 1.85; that for GCAUCAAAAAAAAUUCGUGTT against Dpysl2 was inactive: -0.137.
As to GCGAGUAAUUUCGUUUCCCTT against Hoxd3, the z-score is inactive: 0.528.
Then GGCUAAUCCACUCUGAGUATT against Wasl, with inactive: 0.636; and GGACUAUGAAAUUGACUGUTT against Hdlbp, with inactive: 0.25.
The value for GCUGGGCAUUACCCAUGUUTT against Dusp13 was inactive: 0.649; that for GGUUGUCAUUCUUAUCCUUTT against Mageb1 was inactive: 0.57.
Consider CCAGCUAUUGGAAGUAAAATT against Nbn, for which the z-score was inactive: -1.05.
CCUCACCUAUGGUACUUUCTT against Trcg1: the z-score is inactive: -1.43.
For the sequence GGGAUGAGACACGAAACCUTT against Itga2b, the z-score is inactive: -1.35.
The value for GCACAUGUAUCCAUGCUUCTT against Kcnj11 was inactive: -0.815; that for GGACAGGAUCAGAGAAAGATT against Zbtb7c was active: -2.15; that for GCUGAGGGAUAUCUCAGCCTT against Edn2 was inactive: 1.07.
The value for GGUAACUUCUCUUCUGAGATT against H2-Oa was inactive: 0.269.
For GGCAGGACACCAUAUGGUUTT against Tedc1, the z-score was active: -2.16.
The value for GCUUACUCUGUGGAUCCAGTT against Gm5420 was inactive: -0.524.

(Values after PubChem BioAssay AID1508600 (Functional Genomics Laboratory (NCATS/FGL), 2020).)
